# Some of the results follow.
# Target: T1, OsSMF1 (Oryza sativa, UniProt Q6ZLB0 1-436)
# T1 sequence: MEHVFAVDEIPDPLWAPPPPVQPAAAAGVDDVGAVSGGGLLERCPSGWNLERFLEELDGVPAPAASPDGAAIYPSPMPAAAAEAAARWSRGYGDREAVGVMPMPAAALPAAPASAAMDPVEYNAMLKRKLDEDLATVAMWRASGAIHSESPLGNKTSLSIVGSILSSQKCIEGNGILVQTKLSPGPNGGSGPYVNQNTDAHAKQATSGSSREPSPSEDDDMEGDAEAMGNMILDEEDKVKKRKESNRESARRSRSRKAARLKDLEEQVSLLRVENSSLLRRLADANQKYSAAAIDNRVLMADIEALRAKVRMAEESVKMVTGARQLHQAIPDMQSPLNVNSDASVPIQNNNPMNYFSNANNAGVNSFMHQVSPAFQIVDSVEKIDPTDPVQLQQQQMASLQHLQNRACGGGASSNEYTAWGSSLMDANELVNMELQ
# Assay: protein-binding microarray (RPBM); PBS, 2% BSA, 51.3 ng/ul salmon testes DNA, 50 uM zinc acetate, 200 nM TF, 25 C, 1 h; high values mean tight binding
# Settings: protein: recombinant; tags: N-terminal polyhistidine and DsRed monomer fusion (pET32a); chain copies: 2; label: CyDye5-dUTP incorporated in the synthesized complementary strand; 3' TTTTT single-stranded linker to array surface; dsDNA, one strand shown
# How it was run: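 Binding signal is reported as fluorescence intensity per feature (arbitrary units) from an Axon 4000B scanner. Incubation used 200 nM of each Ni–NTA-purified, N-terminally polyhistidine- and DsRed-fused transcription factor from E. coli BL21-CodonPlus on a double-stranded custom Agilent array for 1 h at 25 °C, with 50 µM zinc acetate in the buffer, followed by washing.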
row,Sequence,binding signal
1,GCCTTCATGACGAAGATGTTAGATGACATTACTCGTCAGACGGAGTCACCTAGTGCAG,3320 fluorescence intensity (a.u.)
2,TTCCATCCAGAGTGCGTCACGAACGCGCCAGTCGCCCGGTCGGAGTCACCTAGTGCAG,3990 fluorescence intensity (a.u.)
3,TGACCGGCTCACCGGCGGAAGCGCGGCAGCGGCGCGGCCTCGGAGTCACCTAGTGCAG,3440 fluorescence intensity (a.u.)
4,CTTGGTCTGGGGCTCGGGGATGTGGCGGCGGGCCGGCGGCCGGAGTCACCTAGTGCAG,4040 fluorescence intensity (a.u.)
5,CCGGGATTTTATCTGGTTTACGACGCATGGGCCAACTCACCGGAGTCACCTAGTGCAG,35900 fluorescence intensity (a.u.)
6,ACATCCGTCGCTTCGTCATATCAGACTCCCCACCCTGGAACGGAGTCACCTAGTGCAG,3430 fluorescence intensity (a.u.)
7,CGATTTAAATACTTGACGGGGAGGGGATGATATACCCTTTCGGAGTCACCTAGTGCAG,3150 fluorescence intensity (a.u.)
8,GGCGCGTGACGACGGATGCTGCAGCGGCGCGGACGTCACCCGGAGTCACCTAGTGCAG,18900 fluorescence intensity (a.u.)
9,TGCTCTGTAGACAGGATACAATGGCACACCTGGTCCTACACGGAGTCACCTAGTGCAG,28300 fluorescence intensity (a.u.)
10,TCTTGCGACGATCGTGTGGGGTGGGTTCGTGTGCTCTCTCCGGAGTCACCTAGTGCAG,6600 fluorescence intensity (a.u.)
11,AGCAATACTCATTTTCTAAATGCTTACATCATTCTGCGTTCGGAGTCACCTAGTGCAG,3770 fluorescence intensity (a.u.)
12,ATTTTGGTCTCAGCAGTGCCACCGTGTCAGCAGGGGCAGCCGGAGTCACCTAGTGCAG,7800 fluorescence intensity (a.u.)
13,CGATCGATCGATCATATCGCTAGCTAGCTTGCTTTAATTTCGGAGTCACCTAGTGCAG,17100 fluorescence intensity (a.u.)
14,TGGCAGACACCAATTTGCTGCACGTGTACATATCGACCCACGGAGTCACCTAGTGCAG,4210 fluorescence intensity (a.u.)
15,CTGTCCTTCTTCATCGCCAATGGCTGCCATGCCAACACCACGGAGTCACCTAGTGCAG,3370 fluorescence intensity (a.u.)
16,TAAGTCTTCGTCCCATGTGGTAATGACATGACACTTACGTCGGAGTCACCTAGTGCAG,4340 fluorescence intensity (a.u.)
17,GTTGCCCATCAACCAAGAGCTAGCACAGCACCGGTGGCAGCGGAGTCACCTAGTGCAG,3250 fluorescence intensity (a.u.)
18,CCAGGTAGTCATCAGTCTGTCACGCCAAACGGGCAAGCAACGGAGTCACCTAGTGCAG,3370 fluorescence intensity (a.u.)
19,AAACACACACATGTACACACACACACTCTCTCTCTCTCTCCGGAGTCACCTAGTGCAG,4080 fluorescence intensity (a.u.)
20,GCAAATATTCCTCTTGCCGTGTCACTGGCTTGCTCTGCTCCGGAGTCACCTAGTGCAG,5330 fluorescence intensity (a.u.)
21,TACTGAAAATGAGTTGGCATCACTACATCACTGCGCCTCGCGGAGTCACCTAGTGCAG,7160 fluorescence intensity (a.u.)

# In a second layout: results already given
row | Sequence | binding signal
16 | TAAGTCTTCGTCCCATGTGGTAATGACATGACACTTACGTCGGAGTCACCTAGTGCAG | 4340 fluorescence intensity (a.u.)
17 | GTTGCCCATCAACCAAGAGCTAGCACAGCACCGGTGGCAGCGGAGTCACCTAGTGCAG | 3250 fluorescence intensity (a.u.)

# (list continues)

row,Sequence,binding signal
1,ACCCGCCGCGCCACACGTGTCCGCGACGCCGGCACGTGCCCGGAGTCACCTAGTGCAG,7160 fluorescence intensity (a.u.)
2,TGATCTTTCTCTCCAAAGAATCGTGCTAGCTCGTTGGAAACGGAGTCACCTAGTGCAG,18000 fluorescence intensity (a.u.)
3,CACATGATCGATCGCATCAACTGACTCCCATCATCTCCGGCGGAGTCACCTAGTGCAG,3440 fluorescence intensity (a.u.)
4,ATAGGAGAGCTACACGTGGCAGTTGACGAGACGGACACACCGGAGTCACCTAGTGCAG,8780 fluorescence intensity (a.u.)
5,CAGCCATCACGGTCGCGCCAGCGACGCCACCGCCGCCCCACGGAGTCACCTAGTGCAG,3750 fluorescence intensity (a.u.)
6,TCCATGTTAATTAATTTGATCAGTTGGACGCATATTTGCGCGGAGTCACCTAGTGCAG,3430 fluorescence intensity (a.u.)
7,CAAATACTAAATGATTTCAAATGAAAACGTCATCAACAACCGGAGTCACCTAGTGCAG,3560 fluorescence intensity (a.u.)
8,TCCACCCCGAAGCAGCAGCATCCACCGCCACGCAGAGAGCCGGAGTCACCTAGTGCAG,3270 fluorescence intensity (a.u.)
9,GGCAGCGGCAGCAAACCAAGGGTAGAATAGTCTACCGGAACGGAGTCACCTAGTGCAG,34300 fluorescence intensity (a.u.)
10,CGCGTAGATTGAAACTGGACAAGCAGTACATGTACAAAATCGGAGTCACCTAGTGCAG,3170 fluorescence intensity (a.u.)
11,ACCTCCTACAACCAGTCCCGATGCAGGCAGAGGCAGCGCCCGGAGTCACCTAGTGCAG,35500 fluorescence intensity (a.u.)
12,GTGGCCGTGTCATTGTCACTGATTCATGTGATGCTGTTGACGGAGTCACCTAGTGCAG,4350 fluorescence intensity (a.u.)
13,CCCACGAGCACTCGCCACGTACATACTCCCTACTTCCCTACGGAGTCACCTAGTGCAG,7610 fluorescence intensity (a.u.)
14,AAGTTCGCCACGCACTTGCCAATTAAATTTGCCATGGCCTCGGAGTCACCTAGTGCAG,5770 fluorescence intensity (a.u.)
15,ATTTCTCCAGTCACGTTACTGCTTACTACTGCTTACTACTCGGAGTCACCTAGTGCAG,4240 fluorescence intensity (a.u.)
16,CCGGCCTAGTCTTCGAAGATGCTCATAAGGGTAGAATTTGCGGAGTCACCTAGTGCAG,3330 fluorescence intensity (a.u.)
17,TTTCTTAACTCGACACGCAATGTATTGTTATTTACGATTCCGGAGTCACCTAGTGCAG,3740 fluorescence intensity (a.u.)
18,AGCTGAGCTGCCACAAATCACACGACACATATTGCTCCTTCGGAGTCACCTAGTGCAG,3250 fluorescence intensity (a.u.)
19,GCAACCACCGTGACGCCGCCGCGCGCCCACTGGAACACGTCGGAGTCACCTAGTGCAG,5010 fluorescence intensity (a.u.)
20,GCGTGTGACTATAATTACGTGGCTTTCCTTCCTGAAGCCGCGGAGTCACCTAGTGCAG,12300 fluorescence intensity (a.u.)
21,CAGTGCACTCGGTGCTGGCTGTTTTGGCCAATCGGTGTTGCGGAGTCACCTAGTGCAG,3320 fluorescence intensity (a.u.)

# — article PMC7819943, “Rice protein-binding microarrays: a tool to detect cis-acting elements near promoter regions in rice”
